Data taken from the supplement of paper PMC11006884.
This is a selection; strong and weak results do not stand in their true shares. The data scatter; read single values as rough.

Sequences of proteins named here, by UniProt entry; tags and fusion partners are left off. A change or cut given only in a name is not applied to a line headed by its entry.
UniProt P40925: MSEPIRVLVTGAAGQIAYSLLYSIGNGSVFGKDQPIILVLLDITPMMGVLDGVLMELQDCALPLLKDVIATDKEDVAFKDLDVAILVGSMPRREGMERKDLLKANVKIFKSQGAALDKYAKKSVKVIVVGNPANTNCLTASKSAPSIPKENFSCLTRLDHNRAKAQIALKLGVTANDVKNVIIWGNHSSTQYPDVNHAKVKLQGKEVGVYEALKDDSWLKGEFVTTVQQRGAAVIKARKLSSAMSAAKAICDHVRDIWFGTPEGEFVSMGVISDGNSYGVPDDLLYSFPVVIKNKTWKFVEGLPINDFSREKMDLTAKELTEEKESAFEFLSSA
UniProt P36551: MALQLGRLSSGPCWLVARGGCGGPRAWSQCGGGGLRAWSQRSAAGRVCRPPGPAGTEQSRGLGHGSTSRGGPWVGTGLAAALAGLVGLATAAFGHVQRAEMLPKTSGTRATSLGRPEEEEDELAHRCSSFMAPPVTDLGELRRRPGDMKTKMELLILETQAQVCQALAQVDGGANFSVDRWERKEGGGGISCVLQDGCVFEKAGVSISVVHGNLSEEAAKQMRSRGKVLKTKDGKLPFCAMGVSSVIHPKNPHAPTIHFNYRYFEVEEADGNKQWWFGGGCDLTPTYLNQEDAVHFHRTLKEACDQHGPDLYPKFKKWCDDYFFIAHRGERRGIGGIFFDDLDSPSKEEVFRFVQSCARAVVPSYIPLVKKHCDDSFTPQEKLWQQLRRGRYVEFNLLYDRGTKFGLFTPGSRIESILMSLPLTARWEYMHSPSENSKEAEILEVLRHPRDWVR
UniProt P30626: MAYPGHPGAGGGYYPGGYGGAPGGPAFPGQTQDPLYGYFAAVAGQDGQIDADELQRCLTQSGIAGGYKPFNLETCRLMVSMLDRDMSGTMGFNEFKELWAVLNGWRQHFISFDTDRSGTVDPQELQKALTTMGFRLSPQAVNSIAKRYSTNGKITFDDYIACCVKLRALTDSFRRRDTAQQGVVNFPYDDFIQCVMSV
UniProt P30837: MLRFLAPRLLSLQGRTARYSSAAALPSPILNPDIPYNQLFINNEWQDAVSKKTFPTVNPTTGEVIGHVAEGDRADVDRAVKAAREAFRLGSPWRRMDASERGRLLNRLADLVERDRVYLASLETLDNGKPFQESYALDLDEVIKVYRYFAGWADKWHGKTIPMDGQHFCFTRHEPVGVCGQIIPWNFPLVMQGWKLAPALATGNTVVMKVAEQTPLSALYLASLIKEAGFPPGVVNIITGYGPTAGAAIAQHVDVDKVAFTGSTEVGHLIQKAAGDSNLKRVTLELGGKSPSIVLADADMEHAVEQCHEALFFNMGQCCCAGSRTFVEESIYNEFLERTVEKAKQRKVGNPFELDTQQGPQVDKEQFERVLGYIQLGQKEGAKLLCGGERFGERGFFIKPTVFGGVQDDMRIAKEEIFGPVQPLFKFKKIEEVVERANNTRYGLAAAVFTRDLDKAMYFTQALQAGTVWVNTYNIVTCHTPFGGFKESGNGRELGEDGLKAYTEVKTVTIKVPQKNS
UniProt P32780: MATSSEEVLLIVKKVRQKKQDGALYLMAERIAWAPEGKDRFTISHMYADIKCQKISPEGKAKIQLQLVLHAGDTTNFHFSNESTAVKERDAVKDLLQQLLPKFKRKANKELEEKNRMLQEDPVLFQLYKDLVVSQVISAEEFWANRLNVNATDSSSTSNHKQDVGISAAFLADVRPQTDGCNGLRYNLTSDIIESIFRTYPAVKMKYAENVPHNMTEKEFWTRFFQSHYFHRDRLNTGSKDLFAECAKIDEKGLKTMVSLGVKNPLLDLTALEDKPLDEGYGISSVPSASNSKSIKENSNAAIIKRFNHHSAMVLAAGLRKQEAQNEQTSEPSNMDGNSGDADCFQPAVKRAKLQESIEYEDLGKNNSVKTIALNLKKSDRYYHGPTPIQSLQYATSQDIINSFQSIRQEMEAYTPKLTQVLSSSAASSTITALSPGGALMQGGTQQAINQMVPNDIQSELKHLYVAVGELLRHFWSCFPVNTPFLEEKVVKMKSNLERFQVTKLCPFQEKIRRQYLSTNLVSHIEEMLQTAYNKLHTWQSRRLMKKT
UniProt P35250, whole entry, looked up: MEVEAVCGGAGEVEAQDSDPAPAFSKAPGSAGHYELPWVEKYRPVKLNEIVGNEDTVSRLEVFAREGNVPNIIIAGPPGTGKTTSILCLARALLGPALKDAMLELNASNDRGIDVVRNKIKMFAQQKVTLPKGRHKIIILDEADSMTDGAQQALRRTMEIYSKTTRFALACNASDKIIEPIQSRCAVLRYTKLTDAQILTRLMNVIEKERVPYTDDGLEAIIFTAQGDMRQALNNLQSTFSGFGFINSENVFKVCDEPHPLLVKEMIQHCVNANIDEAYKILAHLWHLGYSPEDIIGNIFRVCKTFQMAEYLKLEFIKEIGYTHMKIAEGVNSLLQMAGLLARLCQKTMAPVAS
UniProt P33992: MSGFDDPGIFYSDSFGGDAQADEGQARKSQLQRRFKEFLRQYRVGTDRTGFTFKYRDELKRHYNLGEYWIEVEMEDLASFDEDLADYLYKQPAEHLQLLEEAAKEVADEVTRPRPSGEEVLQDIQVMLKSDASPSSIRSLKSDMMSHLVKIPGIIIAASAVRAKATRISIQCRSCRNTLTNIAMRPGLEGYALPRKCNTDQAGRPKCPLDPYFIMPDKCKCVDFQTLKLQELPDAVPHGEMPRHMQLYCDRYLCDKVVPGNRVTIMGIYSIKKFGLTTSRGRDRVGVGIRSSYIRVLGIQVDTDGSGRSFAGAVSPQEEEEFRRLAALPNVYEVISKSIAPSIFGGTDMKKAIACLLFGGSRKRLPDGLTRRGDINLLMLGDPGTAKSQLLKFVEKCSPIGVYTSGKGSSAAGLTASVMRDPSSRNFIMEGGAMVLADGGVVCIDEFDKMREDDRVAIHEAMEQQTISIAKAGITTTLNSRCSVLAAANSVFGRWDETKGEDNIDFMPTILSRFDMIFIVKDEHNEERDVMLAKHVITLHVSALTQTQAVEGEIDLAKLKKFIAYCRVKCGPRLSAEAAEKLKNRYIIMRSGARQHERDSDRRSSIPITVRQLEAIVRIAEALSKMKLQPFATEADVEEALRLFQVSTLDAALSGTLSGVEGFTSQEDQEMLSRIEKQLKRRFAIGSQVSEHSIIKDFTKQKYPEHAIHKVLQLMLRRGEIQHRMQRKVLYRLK
UniProt P31943: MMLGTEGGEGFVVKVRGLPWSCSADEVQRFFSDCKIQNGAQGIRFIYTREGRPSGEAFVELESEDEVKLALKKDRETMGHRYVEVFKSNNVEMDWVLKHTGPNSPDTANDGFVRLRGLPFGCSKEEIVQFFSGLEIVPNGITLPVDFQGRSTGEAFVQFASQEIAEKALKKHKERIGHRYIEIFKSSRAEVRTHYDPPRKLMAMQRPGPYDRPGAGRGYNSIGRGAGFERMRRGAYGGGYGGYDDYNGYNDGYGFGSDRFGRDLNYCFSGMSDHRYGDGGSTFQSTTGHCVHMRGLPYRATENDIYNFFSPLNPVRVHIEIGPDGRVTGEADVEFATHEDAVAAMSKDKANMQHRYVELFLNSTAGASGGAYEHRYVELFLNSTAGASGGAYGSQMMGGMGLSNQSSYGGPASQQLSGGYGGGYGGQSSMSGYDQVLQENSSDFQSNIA
UniProt P40123, whole entry: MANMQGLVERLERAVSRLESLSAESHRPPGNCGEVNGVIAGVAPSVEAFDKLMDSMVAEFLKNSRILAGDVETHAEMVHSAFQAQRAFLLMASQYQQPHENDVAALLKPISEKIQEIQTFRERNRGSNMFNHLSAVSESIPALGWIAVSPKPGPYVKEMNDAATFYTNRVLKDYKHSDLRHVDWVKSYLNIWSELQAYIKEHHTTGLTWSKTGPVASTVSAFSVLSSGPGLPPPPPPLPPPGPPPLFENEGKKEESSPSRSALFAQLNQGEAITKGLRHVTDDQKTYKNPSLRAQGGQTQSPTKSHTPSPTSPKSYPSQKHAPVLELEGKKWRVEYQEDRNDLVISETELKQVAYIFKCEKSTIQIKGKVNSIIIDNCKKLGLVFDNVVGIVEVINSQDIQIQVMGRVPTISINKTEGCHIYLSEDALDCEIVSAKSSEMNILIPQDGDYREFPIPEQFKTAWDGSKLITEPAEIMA
UniProt P42684, whole entry: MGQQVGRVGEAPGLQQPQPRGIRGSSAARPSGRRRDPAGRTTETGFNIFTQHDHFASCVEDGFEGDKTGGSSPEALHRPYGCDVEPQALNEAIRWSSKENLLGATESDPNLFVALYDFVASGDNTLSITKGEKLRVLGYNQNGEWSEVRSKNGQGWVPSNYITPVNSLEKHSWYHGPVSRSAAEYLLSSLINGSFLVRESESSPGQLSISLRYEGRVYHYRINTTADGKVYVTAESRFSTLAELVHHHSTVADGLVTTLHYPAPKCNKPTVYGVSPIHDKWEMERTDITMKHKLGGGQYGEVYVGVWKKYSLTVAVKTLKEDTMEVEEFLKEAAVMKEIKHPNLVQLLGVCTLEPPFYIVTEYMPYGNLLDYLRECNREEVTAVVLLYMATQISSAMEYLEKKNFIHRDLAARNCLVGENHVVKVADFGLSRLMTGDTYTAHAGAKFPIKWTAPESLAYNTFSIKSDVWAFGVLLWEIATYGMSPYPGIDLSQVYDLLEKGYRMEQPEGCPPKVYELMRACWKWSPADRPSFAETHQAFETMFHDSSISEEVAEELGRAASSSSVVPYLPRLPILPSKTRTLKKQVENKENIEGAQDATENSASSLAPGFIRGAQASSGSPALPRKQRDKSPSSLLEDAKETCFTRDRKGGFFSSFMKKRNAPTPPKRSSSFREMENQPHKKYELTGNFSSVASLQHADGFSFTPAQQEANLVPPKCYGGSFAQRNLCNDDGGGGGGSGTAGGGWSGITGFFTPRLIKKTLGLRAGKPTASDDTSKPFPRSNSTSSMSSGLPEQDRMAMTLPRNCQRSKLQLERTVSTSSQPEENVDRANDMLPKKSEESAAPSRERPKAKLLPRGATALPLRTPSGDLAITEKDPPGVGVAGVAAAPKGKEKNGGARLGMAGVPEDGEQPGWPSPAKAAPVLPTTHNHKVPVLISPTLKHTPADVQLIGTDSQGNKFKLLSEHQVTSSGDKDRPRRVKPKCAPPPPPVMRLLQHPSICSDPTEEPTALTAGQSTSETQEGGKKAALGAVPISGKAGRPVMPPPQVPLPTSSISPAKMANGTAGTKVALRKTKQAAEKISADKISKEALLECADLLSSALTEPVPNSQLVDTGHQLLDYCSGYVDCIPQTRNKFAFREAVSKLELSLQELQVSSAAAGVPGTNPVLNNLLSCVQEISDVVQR
UniProt P38646: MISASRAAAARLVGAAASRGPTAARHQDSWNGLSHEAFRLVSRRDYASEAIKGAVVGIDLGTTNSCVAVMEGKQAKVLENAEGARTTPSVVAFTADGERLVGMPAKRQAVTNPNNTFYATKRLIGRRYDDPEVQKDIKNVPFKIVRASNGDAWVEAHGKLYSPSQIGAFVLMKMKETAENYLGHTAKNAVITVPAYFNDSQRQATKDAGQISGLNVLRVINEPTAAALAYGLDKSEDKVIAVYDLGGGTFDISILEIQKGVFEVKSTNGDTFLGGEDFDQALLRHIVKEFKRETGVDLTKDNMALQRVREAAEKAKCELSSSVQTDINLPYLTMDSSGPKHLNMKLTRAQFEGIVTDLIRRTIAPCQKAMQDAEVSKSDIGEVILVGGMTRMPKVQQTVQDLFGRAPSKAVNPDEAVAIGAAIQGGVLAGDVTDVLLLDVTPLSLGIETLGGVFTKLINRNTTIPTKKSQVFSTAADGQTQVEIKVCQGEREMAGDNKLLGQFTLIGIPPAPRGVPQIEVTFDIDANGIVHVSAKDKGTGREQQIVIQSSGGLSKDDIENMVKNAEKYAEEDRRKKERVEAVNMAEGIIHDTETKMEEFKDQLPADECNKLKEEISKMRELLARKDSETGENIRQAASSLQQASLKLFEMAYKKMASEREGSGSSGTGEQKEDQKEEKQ
UniProt P37802: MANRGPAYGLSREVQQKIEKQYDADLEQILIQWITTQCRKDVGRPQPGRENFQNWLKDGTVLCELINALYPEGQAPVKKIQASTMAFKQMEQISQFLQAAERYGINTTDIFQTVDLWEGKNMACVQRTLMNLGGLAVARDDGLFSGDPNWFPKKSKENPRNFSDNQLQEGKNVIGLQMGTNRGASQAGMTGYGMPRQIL
UniProt P36873, whole entry, looked up: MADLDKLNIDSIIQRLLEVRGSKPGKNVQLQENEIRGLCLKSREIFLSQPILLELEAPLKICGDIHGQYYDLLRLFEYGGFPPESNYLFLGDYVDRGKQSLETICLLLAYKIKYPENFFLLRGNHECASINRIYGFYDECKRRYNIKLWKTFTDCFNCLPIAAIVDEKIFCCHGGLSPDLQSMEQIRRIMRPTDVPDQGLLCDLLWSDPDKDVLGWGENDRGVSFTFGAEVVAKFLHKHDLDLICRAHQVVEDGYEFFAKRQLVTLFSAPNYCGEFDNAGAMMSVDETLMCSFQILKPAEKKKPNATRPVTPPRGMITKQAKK

What follows are targets tested with COC(=O)/C=C/c1ccccc1 [methyl cinnamate] (assay: log2 ratio of iodoacetamide-alkyne labeling of the cysteine site, DMSO over compound (competition); higher = stronger covalent engagement of the cysteine by the compound, active = 1 or more). Settings: 500 µM; treatment time 1 h; system: HEK293T cell lysate.
Method in brief: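 For each cysteine, the log2 competition ratio is mean control-channel reporter intensity over mean compound-channel reporter intensity. HEK293T lysate (2 mg/mL) was exposed to vehicle or electrophile (500 µM, 1 h, ambient temperature), labelled with iodoacetamide alkyne (1 h), clicked to sCIP-TMT reagents, digested overnight with trypsin at 37 °C, streptavidin-enriched and analysed by Orbitrap Eclipse LC-MS/MS with FAIMS and FragPipe. Cysteines quantified in only one of three replicates, each with duplicate channels, were excluded.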

log2 ratio of iodoacetamide-alkyne labeling, inactive:
MDH1 C137 (UniProt P40925) 0.152
COIL C126 (UniProt P38432) 0.273
RPL4 C250 (UniProt P36578) -0.154
CPOX C239 (UniProt P36551) 0.0663
ADSL C27 (UniProt P30566) -0.119
SRI C194 (UniProt P30626) -0.0721
UniProt P42126_C173 -0.0225
ALDH1B1 C179 (UniProt P30837) -0.0202
KIF5B C421 (UniProt P33176) 0.205
GTF2H1 C506 (UniProt P32780) 0.345
RFC2 C7 (UniProt P35250) 0.299
MAT2A C104 (UniProt P31153) -0.16
MCM5 C207 (UniProt P33992) 0.0663
UniProt P42356_C1774 -0.141
LRPPRC C500 (UniProt P42704) 0.15
PPP2R1A C174 (UniProt P30153) 0.241
PDIA3 C244 (UniProt P30101) 0.0791
IARS C120 (UniProt P41252) -0.00413
HNRNPH1 C267 (UniProt P31943) 0.0252
POLR2B C984 (UniProt P30876) -0.0202
CAP2 C32 (UniProt P40123) -0.0924
ABL2 C999 (UniProt P42684) 0.206
MYH10 C382 (UniProt P35580) 0.0873
UniProt P30520_C182 -0.0277
CPOX C198 (UniProt P36551) 0.225
RPL9 C74 (UniProt P32969) 0.233
AGL C608 (UniProt P35573) 0.104
AGL C767 (UniProt P35573) -0.0817
MATR3 C552 (UniProt P43243) 0.146
HSPA9 C366 (UniProt P38646) 0.236
POLR2B C919 (UniProt P30876) -0.242
UniProt P30520_C18 0.154
MYH9 C1379 (UniProt P35579) 0.179
MTOR C674 (UniProt P42345) 0.178
TAGLN2 C63 (UniProt P37802) 0.0277
ALDH1B1 C478 (UniProt P30837) -0.347
PPP1CC C62 (UniProt P36873) 0.353

Nothing new here: an excerpt of the list.
log2 ratio of iodoacetamide-alkyne labeling, inactive:
ABL2 C999 (UniProt P42684) 0.206
MYH10 C382 (UniProt P35580) 0.0873
